Consider 68 compounds from PubChem BioAssay AID662 (National Center for Advancing Translational Sciences (NCATS), 2007).

The structures appear in SMILES notation. This is one part of the list. Shown are side measurements of this screen, not its main read-out; they come without a call. The list favours compounds with an active or inconclusive main result. The note in brackets gives the kind of curve behind each potency; many fits are weak.

The assay is described as follows: Cell signaling CRE-BLA (Fsk stim). As to conditions: CHO CRE-bla reporter (cAMP response element driving beta-lactamase), forskolin EC10, beta-lactamase ratio; measured here: 460 nm blue channel. In short, it runs like this: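 Reporter-gene assay: CHO cells with beta-lactamase behind cAMP responsive elements, co-treated with compound and EC10 NKH 477 for 3 hours at 37 degrees Celsius. Activity came from the 460/530 nm CCF4 emission ratio.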
Usually AC50 stands for the midpoint of the concentration-response curve, whichever way the signal moves. Regarding `Cc1ccc(C(=O)CC2(O)C(=O)N(CN3CCOCC3)c3ccccc32)cc1` (stereo not drawn), the AC50 was 0.251 µM [falling, partial curve, poor fit].

`Cc1ccc(SC/C(O)=C(\C#N)c2nc3ccccc3n2C)cc1`: the AC50 is 12.6 µM [rising, single point]. The result for `Cn1c(=O)oc2cc(S(=O)(=O)N3CCC(C(=O)Nc4ccc(OC(F)(F)F)cc4)CC3)ccc21` reads 0.398 µM [falling, single point]; that for `CCCn1nc(C(=O)NCCN2CCOCC2)c2ccccc2c1=O`, 0.00794 µM [falling, full curve, poor fit]; that for `Fc1ccc(COc2ccc(/C=N/n3cnnc3)cc2)cc1`, 0.1 µM [falling, full curve].

As to `O=C(c1ccco1)N1CCN(c2ncnc3scc(-c4cccs4)c23)CC1`, the AC50 is 25.1 µM [rising, single point]. For `O=C(CCN1CCN(c2ccccn2)CC1)Nc1ccc(F)cc1`, the AC50 is 31.6 µM [falling, single point].

With `CC(NC(=O)c1cccs1)C(c1cccs1)N1CCN(Cc2ccccc2)CC1` (stereo not drawn), the AC50 was 25.1 µM [rising, single point]. The result for `COc1ccc2c(c1OC)C(=O)OC2[C@H]1c2c(cc3c(c2OC)OCO3)CCN1C` (stereo partly drawn) reads 31.6 µM [rising, partial curve]; that for `CN(Cc1ccccc1)Cc1nc2c(c(=O)n(C)c(=O)n2C)n1Cc1ccc(F)cc1`, 25.1 µM [rising, single point]; that for `CCC(C)NC(=O)C1CCN(S(=O)(=O)c2cccnc2)CC1` (stereo not drawn), 1 µM [falling, full curve]. Regarding `O=C(Cc1c(F)cccc1Cl)N1CCN(C(=O)c2ccco2)CC1`, the AC50 was 10 µM [falling, single point]. In the case of `Cc1ccc(C2=CC(c3ccc(N(C)C)cc3)n3nnnc3N2)cc1` (stereo not drawn), the AC50 is 7.94 µM [rising, partial curve].

`Cc1cnc(CNc2nc(-c3ccccc3Cl)nc3ccccc23)cn1`: the AC50 is 12.6 µM [rising, partial curve].

Turning to `O=S(=O)(Cc1ccccc1)N1CCCCCC1`, the AC50 was 12.6 µM [rising, partial curve].

In the case of `Cc1cccc2cc3c(NC(=O)CC(C)C)nn(C)c3nc12`, the half-maximal activity concentration (AC50) was 10 µM [rising, partial curve]. The result for `Cc1[nH]c2ccccc2c1-c1cc(-c2cc(-c3c(C)[nH]c4ccccc34)nc(N)n2)nc(N)n1` reads 5.01 µM [rising, partial curve]; that for `COc1ccc2[nH]c(=O)c(CN(C(C)=O)c3cccc(C)c3)cc2c1`, 12.6 µM [rising, single point]; that for `CC(C)CCSc1nc2c(c(=O)[nH]c(=O)n2C)n1CCCc1ccccc1`, 12.6 µM [rising, single point].

For the compound `COc1ccc(CNC(=O)c2cc(-c3ccco3)on2)cc1`, the AC50 was 1.26 µM [falling, partial curve]. The figure for `O=c1c(-c2ccccc2)nc2cnc(N3CCOCC3)nc2n1-c1ccccc1` is 3.98 µM [rising, partial curve].

As for `O=C1CCCCCN1Cc1nnc(SCc2nc3ccccc3s2)n1-c1ccccn1`, the AC50 was 0.251 µM [falling, full curve]. The result for `O=C(Cn1cnc2c(nnn2-c2ccc(F)cc2)c1=O)NCc1ccco1` reads 0.316 µM [falling, partial curve, poor fit]; that for `COc1ccc2cc3cc(C(=O)NCCc4ccc(OC)c(OC)c4)oc3nc2c1`, 3.16 µM [rising, partial curve]. As to `O=C(Nc1ccccn1)c1cccc(S(=O)(=O)N2CCCCC2)c1`, the AC50 was 0.794 µM [falling, full curve, poor fit]. The figure for `O=C(CCn1nnc2ccccc21)Nc1nnc(Cc2ccccc2)s1` is 0.00398 µM [falling, full curve, poor fit]; for `Cn1c(CCNC(=O)c2ccccc2F)nnc1SCc1nc2ccccc2c(=O)[nH]1` it is 0.00398 µM [falling, full curve, poor fit]. With `c1cncc(-c2nnc3n2CCC3)c1`, the half-maximal activity concentration (AC50) is 3.16 µM [falling, single point]. For the compound `C=CCn1nnc2sc3c(c2c1=O)CCC(C)C3` (stereo not drawn), the AC50 is 10 µM [rising, single point]. The result for `COc1ccccc1C(=O)NCC(=O)Nc1ccccc1` reads 25.1 µM [rising, single point]; that for `COCC(=O)N1CCC2(CCCN(C(=O)Nc3cccc(F)c3)C2)CC1`, 25.1 µM [falling, single point]. The result for `c1ccc(Cc2ccc(OCCn3cncn3)cc2)cc1` reads 0.00316 µM [falling, partial curve, poor fit]; that for `COCC(=O)Nc1sc2c(c1C(=O)OC)CCCC2`, 12.6 µM [rising, single point]; that for `CS(=O)(=O)Nc1cccc(-c2nc(N3CCNCC3)c3ccccc3n2)c1`, 10 µM [rising, partial curve]. As to `O=C(O)CCc1nc(-c2ccccc2Cl)no1`, the AC50 is 10 µM [falling, single point]. Regarding `COc1ccc2cc(C(c3nnnn3CCc3ccccc3)N3CCCC(C)C3)c(=O)[nH]c2c1` (stereo not drawn), the AC50 was 12.6 µM [rising, partial curve]. The figure for `Cc1sc2nc(-c3ccco3)oc(=O)c2c1C` is 25.1 µM [rising, partial curve]. The result for `CCNc1nc(N2CCCCC2)nc(-n2nnc(C(=O)OCC)c2C)n1` reads 12.6 µM [rising, partial curve]; that for `COc1cc2oc(-c3ccccc3)cc(=O)c2cc1OC`, 3.16 µM [rising, full curve]; that for `CC(=O)C(Sc1nc(-c2ccco2)nc2c1c(=O)n(C)c(=O)n2C)C(=O)N(C)C` (stereo not drawn), 5.01 µM [rising, partial curve]. The figure for `COc1cccc(N2CCN(CC(=O)Nc3nnc(-c4ccccc4)s3)CC2)c1` is 12.6 µM [falling, partial curve]; for `CC(C)(C)Nc1nc(SCc2ccccc2)nc(N2CCOCC2)n1` it is 2 µM [rising, full curve]. As for `COc1ccc(C(=O)O)cc1F`, the AC50 was 0.00398 µM [falling, full curve, poor fit]. Consider `O=S(=O)(c1ccc(OCC(O)CN2CCN(c3ccccc3Cl)CC2)cc1)N1CCOCC1` (stereo not drawn), for which the AC50 was 5.01 µM [falling, single point]. The result for `COCCn1c(=NC(=O)CSCC(=O)Nc2cc(C)on2)sc2cc(C(=O)OC)ccc21` reads 1.26 µM [falling, full curve]; that for `CSc1nnnn1CCn1nnnc1SC`, 0.126 µM [falling, full curve, poor fit]. For the compound `CCOC(=O)c1c(NC(=O)CSc2nnc(CN3CCOCC3)n2C)sc2c1CCCC2`, the AC50 is 7.94 µM [falling, partial curve]. The result for `CCOc1ccccc1C(=O)NC(C(=O)Nc1ccccc1N1CCOCC1)C(C)C` (stereo not drawn) reads 15.8 µM [rising, partial curve]; that for `COc1cc(NC(=O)c2onc(C)c2Cl)c(OC)cc1Cl`, 12.6 µM [rising, partial curve]; that for `c1ccc2nc3c(nc2c1)CCc1nonc1-3`, 15.8 µM [rising, single point]. The result for `CCOC(=O)CNc1c(-c2ccc(O)cc2)nc2ccccn12` reads 12.6 µM [falling, partial curve]; that for `COC(=O)c1ccccc1NC(=O)CSc1nc(N)cc(N)n1`, 10 µM [rising, partial curve]; that for `O=C(Oc1ccccc1)N1CCC2(CCCN(c3ccccc3)C2)CC1`, 1 µM [rising, partial curve]. The result for `O=c1[nH]cnc2c1sc(=S)n2-c1ccccc1` reads 0.158 µM [rising, full curve, poor fit]; that for `CCOC(=O)C1CCCN(C(=O)c2ccc(OCC)cc2)C1` (stereo not drawn), 0.00316 µM [falling, full curve, poor fit]. Regarding `CN(Cc1ccco1)c1ccnc(-c2cccc(C#N)c2)n1`, the AC50 was 6.31 µM [rising, partial curve]. The result for `C=CCOC(=O)C1=C(C)Nc2nnnn2C1c1cccc(OC)c1OC` (stereo not drawn) reads 25.1 µM [rising, single point]. The figure for `N#Cc1c(SCC(N)=O)nc(-c2ccccc2)c2c1CCCC2` is 6.31 µM [rising, partial curve]; for `O=C(CN1C(=O)COc2ccccc21)NCCCN1CCN(Cc2ccccc2)CC1` it is 0.0794 µM [falling, full curve]; for `CCN(CCCn1c(SCC#N)nc2ccccc2c1=O)c1ccccc1` it is 2.51 µM [rising, full curve]. The figure for `O=C(CSc1nc(-c2ccccc2)cc(=O)[nH]1)Nc1ccccn1` is 15.8 µM [rising, partial curve]. On to `COc1cc(C2C(C(=O)c3cccs3)=C(O)C(=O)N2Cc2ccco2)cc(OC)c1OC` (stereo not drawn), for which the AC50 is 0.00398 µM [falling, full curve]. The figure for `O=C(c1ccc(CS(=O)(=O)c2c(Cl)cccc2Cl)o1)N1CCN(c2ccccn2)CC1` is 12.6 µM [rising, partial curve]; for `O=c1[nH]c(CSc2nnc(-c3ccco3)n2-c2ccccc2)nc2sc3c(c12)CCC3` it is 10 µM [rising, partial curve]; for `CCn1c(=O)n(CC)c2cc(S(=O)(=O)Nc3ccccc3C)c(C)cc21` it is 10 µM [rising, single point].

On to `Cn1c2ccccc2c2c(C(=O)NCC3CCCO3)cn(C3CCCC3)c(=O)c21` (stereo not drawn), for which the AC50 is 10 µM [rising, partial curve]. The result for `CCOC(=O)N1CCC(NC(=O)Cn2c3ccccc3c3cn[nH]c(=O)c32)CC1` reads 0.316 µM [falling, partial curve, poor fit]; that for `COc1ccc(C2/C(=C(/O)c3ccccc3)C(=O)C(=O)N2CC(C)O)c(OC)c1` (stereo not drawn), 7.94 µM [falling, partial curve].
